Source: publication doi:10.1101/2021.01.25.428026
Substitutions are numbered along the chain they refer to. Names and notes keep the numbering of the source. These are yes or no findings as the source states them, for the method shown. Sequences can lack the tags named with a protein.

T1: Flag-DJ-1 WT (human), Q99497
T1 chain: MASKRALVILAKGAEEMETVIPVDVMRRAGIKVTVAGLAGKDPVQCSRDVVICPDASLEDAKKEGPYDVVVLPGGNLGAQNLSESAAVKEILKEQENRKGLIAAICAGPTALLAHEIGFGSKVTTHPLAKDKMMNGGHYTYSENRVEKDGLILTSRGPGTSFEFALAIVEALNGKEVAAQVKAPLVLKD

T2: Flag-DJ-1 C106A (human), Q99497
T2 chain: T1 chain with C106A

B1: Flag-DJ-1 WT, Q99497 1-189 (protein)
chain: T1 chain
B2: Flag-DJ-1 C106A, Q99497 1-189 (protein)
chain: T1 chain with C106A

Tests used:
[1] = biological target: T1, Flag-DJ-1 WT (human), Q99497; assay: non-reducing SDS-PAGE; conditions: remark: other sources report otherwise
[2] = biological target: T2, Flag-DJ-1 C106A (human), Q99497; assay: non-reducing SDS-PAGE; conditions: remark: other sources report otherwise

Row | Binder | binding [1] | binding [2]
1 | B1 | no binding | 
2 | B2 |  | no binding
